For some assays here: What follows is the remainder of the data, with few or none of the hits. Inconclusive results are not listed. Only a part is listed here, and it is no random draw. Calls of active or inactive are those of the source. Unless noted, calls come from the whole dose curve; as a rule, active = well fitted inhibition curve with a large enough effect; inconclusive = small, poorly fitted or top-dose-only effect; inactive = flat fitted curve, though single readings scatter.
Columns and labels:
[1] = molecular target: Calcium and integrin-binding protein 1 (Homo sapiens) (UniProt Q99828); experiment: Primary qHTS for Identification of Calcium Integrin Binding Protein 1 (CIB1) Competitor (AID 1508620); conditions: CIB1-GST / FITC-alphaIIb peptide fluorescence polarization; at 114 µM (top of the series);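 note: GST tagged CIB1 binding a fluorescein labelled alphaIIb integrin peptide tracer; top concentration of the series differs between compounds; % is set by controls: 0 for no effect and ±100 for the full control effect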
In short: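 Fluorescence polarization competition: CIB1-GST (1 uM final) preincubated with compound 15 min at room temperature, then FITC-labeled alphaIIb peptide (100 nM final) added for another 15 min. Polarization read at Ex 480/Em 540.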

Protein sequences, listed by entry. Tags and fused reporters are not part of them. Lines headed by an entry give the natural chain unless they say otherwise; changes in a name come on top.
UniProt Q99828: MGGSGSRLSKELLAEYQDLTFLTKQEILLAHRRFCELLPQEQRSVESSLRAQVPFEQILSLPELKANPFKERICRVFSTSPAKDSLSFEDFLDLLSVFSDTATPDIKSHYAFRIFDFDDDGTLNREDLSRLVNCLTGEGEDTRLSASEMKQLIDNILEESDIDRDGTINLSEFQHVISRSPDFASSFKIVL
UniProt P07203, whole entry, looked up: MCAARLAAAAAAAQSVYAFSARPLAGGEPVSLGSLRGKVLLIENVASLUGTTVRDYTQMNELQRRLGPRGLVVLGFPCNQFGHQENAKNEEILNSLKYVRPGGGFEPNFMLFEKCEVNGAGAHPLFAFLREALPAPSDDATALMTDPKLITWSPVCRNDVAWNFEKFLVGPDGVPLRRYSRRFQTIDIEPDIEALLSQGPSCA
UniProt P36969, whole entry, looked up: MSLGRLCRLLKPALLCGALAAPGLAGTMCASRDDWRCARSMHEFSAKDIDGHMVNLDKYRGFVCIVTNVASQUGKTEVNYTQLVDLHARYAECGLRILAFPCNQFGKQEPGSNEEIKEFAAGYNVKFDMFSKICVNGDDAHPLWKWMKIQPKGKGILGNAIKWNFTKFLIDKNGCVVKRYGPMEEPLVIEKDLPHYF
UniProt P04062: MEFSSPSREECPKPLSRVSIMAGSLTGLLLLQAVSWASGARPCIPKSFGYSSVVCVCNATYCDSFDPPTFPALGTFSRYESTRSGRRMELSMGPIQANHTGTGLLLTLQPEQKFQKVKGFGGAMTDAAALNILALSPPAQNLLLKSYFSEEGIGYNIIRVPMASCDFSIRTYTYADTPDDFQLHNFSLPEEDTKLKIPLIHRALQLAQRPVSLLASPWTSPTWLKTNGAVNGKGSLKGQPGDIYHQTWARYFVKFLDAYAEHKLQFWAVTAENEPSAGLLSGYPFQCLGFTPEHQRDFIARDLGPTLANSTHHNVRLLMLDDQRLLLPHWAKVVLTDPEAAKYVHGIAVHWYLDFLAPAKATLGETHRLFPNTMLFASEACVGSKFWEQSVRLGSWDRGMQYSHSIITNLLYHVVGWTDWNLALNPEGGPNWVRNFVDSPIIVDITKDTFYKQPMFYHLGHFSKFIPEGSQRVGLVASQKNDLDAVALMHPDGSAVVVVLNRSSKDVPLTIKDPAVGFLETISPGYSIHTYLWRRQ
UniProt Q07343: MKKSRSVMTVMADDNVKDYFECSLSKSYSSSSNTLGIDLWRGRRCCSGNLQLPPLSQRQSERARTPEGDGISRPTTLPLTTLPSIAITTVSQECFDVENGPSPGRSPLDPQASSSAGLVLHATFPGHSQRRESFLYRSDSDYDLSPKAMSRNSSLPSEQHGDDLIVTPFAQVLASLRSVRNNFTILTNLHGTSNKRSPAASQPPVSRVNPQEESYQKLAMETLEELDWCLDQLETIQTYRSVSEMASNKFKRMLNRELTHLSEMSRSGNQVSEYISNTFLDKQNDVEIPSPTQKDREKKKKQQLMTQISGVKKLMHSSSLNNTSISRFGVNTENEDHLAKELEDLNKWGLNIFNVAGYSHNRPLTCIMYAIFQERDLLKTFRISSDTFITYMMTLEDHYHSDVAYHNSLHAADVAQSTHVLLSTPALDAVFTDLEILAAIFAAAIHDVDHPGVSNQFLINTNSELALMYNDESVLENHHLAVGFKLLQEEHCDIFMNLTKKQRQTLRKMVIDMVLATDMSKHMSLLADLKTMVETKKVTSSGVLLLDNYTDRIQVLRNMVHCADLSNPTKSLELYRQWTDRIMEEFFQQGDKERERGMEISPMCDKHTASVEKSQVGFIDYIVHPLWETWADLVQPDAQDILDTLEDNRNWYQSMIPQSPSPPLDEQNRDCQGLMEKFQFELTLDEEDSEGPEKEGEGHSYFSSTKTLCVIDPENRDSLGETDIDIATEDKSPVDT
UniProt P04150: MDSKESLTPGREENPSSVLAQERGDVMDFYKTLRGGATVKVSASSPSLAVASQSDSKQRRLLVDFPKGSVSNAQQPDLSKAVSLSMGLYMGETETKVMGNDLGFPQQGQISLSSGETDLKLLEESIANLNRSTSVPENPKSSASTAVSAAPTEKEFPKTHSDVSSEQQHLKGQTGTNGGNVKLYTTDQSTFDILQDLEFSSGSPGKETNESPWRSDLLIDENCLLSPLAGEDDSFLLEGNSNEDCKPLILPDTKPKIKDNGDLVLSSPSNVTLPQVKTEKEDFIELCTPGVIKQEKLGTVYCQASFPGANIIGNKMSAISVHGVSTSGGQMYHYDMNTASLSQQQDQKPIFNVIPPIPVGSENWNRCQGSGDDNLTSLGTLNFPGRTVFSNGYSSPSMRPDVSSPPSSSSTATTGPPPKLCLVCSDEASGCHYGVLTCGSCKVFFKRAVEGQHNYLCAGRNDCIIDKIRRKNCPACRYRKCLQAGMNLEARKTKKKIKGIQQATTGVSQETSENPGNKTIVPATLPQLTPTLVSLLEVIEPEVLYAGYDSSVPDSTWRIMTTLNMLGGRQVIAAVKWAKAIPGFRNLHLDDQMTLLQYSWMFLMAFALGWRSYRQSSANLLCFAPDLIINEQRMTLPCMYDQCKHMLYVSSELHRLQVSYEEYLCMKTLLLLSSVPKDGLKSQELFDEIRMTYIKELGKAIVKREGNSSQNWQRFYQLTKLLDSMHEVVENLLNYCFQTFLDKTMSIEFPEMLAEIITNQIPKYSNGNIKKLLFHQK

[2] = molecular target: Glutathione peroxidase 1 (Homo sapiens) (UniProt P07203); experiment: Primary qHTS Assay for Inhibitors of Recombinant Selenoprotein Glutathione Peroxidase 1 (GPX1) (AID 1845191); conditions: recombinant GPX1, GR-coupled NADPH fluorescence, 15 min; activity, negative = inhibition: at 48.8 µM (top of the series); note: nearly all actives have a fitted effect of over 65% in size
In short: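 GPX1 10 nM, GR 100 nM, GSH 1 mM, NADPH 0.5 mM, CHP 0.5 mM (final). 30-min cpd preincubation, RT. Ex340/Em450 read t=0, t=15 min.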

[3] = molecular target: Phospholipid hydroperoxide glutathione peroxidase GPX4 (Homo sapiens) (UniProt P36969); experiment: Primary qHTS Assay for Inhibitors of Recombinant Selenoprotein Glutathione Peroxidase 4 (GPX4) (AID 1845192); conditions: recombinant GPX4, GR-coupled NADPH fluorescence, 15 min; at 50 µM (top of the series); note: % is set by controls: 0 for no effect and ±100 for the full control effect; nearly all actives have a fitted effect of over 65% in size
In short: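 qHTS, GR-coupled: GPX4 200 nM + cpd 30 min RT → GSH 1 mM, NADPH 0.5 mM, GR 100 nM → CHP 0.5 mM start; fluor 340/450 at t0 and t15 min; no-enzyme wells as control.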

[4] = molecular target: Lysosomal acid glucosylceramidase (Homo sapiens) (UniProt P04062); experiment: Glucocerebrosidase-p2 (AID 348; in the data active = potency below about 10 µM; note: potency is the fitted concentration of half-maximal effect); conditions: purified GBA, blue fluorogenic substrate, 40 min
In short: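 Normal human glucocerebrosidase (0.2 nM) with blue fluorogenic substrate (80 uM final) in citrate/phosphate pH 5.9 with 10mM sodium taurocholate, 0.01% tween-20; 40 min RT, NaOH/glycine stop; fluorescence Ex 365/Em 440; AC50 from a titration from 0.6 nM upwards.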

[5] = AP1 Signaling Pathway (AID 357; active = well fitted curve in either direction with a large enough effect, not every such curve was filed as active;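 note: ME-180 reporter cells stimulated with EGF at its EC50 level; % is set by controls: 0 for no effect and ±100 for the full control effect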); conditions: ME-180 (cervical carcinoma) AP-1-bla reporter, EGF-induced, beta-lactamase ratio, 5 h; at 7.69 µM (top of the series)
In short: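 Beta-lactamase reporter under AP-1 response element, ME-180 background. Stimulus: EC50 EGF. Compound exposure 5 h, 37 °C. Detection: CCF4, 2.5 h RT, 460/530 nm. Values: AC50 from titration.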

[6] = NFAT Signaling Pathway (AID 444; active = well fitted curve in either direction with a large enough effect, not every such curve was filed as active;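 note: carbachol stimulus at about its EC50 of 1 µM final; % is set by controls: 0 for no effect and ±100 for the full control effect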); conditions: Jurkat NFAT-bla M1, carbachol, beta-lactamase ratio, 5 h; at 7.69 µM (top of the series)
In short: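 Jurkat cells carrying an NFAT-driven β-lactamase reporter and co-transfected muscarinic M1 receptor were treated with compound plus carbachol (1 uM final, an EC50 level) for 5 h at 37 °C. CCF4 loading followed for 1 h at RT; 460/530 nm ratio gave %activity.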

[7] = molecular target: Mitogen-activated protein kinase 10 (Mus musculus) (UniProt Q61831); experiment: JNK3 AlphaScreen Assay (AID 530; active = well fitted curve in either direction with a large enough effect, not every such curve was filed as active;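 note: kinase came from lysate of stimulated human HepG2 cells; signal reports phosphorylation of biotinylated GST-cJun 1-79 at Ser73 with 10 µM ATP; % is set by controls: 0 for no effect and ±100 for the full control effect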); conditions: JNK3 lysate, c-Jun phosphorylation; at 11.4 µM (top of the series) unless noted
In short: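 Biotinylated GST-cJun(1-79) served as substrate for JNK3 in HepG2 lysates stimulated with IL-1beta and TNF-alpha. ATP was 10 uM final, pH 7.6. Ser73 phosphorylation was quantified by AlphaScreen (680 nm excitation).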

[8] = molecular target: 3',5'-cyclic-AMP phosphodiesterase 4B (Homo sapiens) (UniProt Q07343); experiment: qHTS Assay for Inhibitors of PDE-IV (AID 607; active = well fitted activation curve with a large enough effect in the main read-out, with a control signal flat, not every such curve was filed as active; note: % of control where 0% means no effect); conditions: HEK293 ACTOne CNG channel cells, membrane potential fluorescence; at 22.9 µM (top of the series)
In short: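 ACTOne HEK293 cells carry a modified cAMP-gated CNG channel and express endogenous PDE4; plated 1000 cells/well, compounds up to 22.9 uM final. Membrane-potential dye fluorescence (ex 535/em 590) was read; parental cells received 10 uM forskolin + 100 uM RO 20-1724.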

[9] = molecular target: Glucocorticoid receptor (Homo sapiens) (UniProt P04150); experiment: GR-GFP Redistribution (AID 450;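 active = compounds whose dose series gives a full or clear partial fitted curve of increased nuclear translocation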; note: potency is the fitted concentration of half-maximal effect); conditions: U2OS GR-GFP nuclear translocation, laser cytometry, 2 h
[10] = molecular target: Glucocorticoid receptor (Homo sapiens) (UniProt P04150); experiment: GR-EFC Redistribution (AID 451; calls by dose curve; note: potency is the fitted concentration of half-maximal effect); conditions: CHO-K1 GR-EFC translocation, beta-gal luminescence, 2 h
In short: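 CHO-K1 cells stably expressing nuclear-localized β-gal enzyme acceptor and GR fused C-terminally to the enzyme donor fragment; ligand-driven nuclear translocation restores β-gal by complementation. Compounds titrated up to 46 uM final, 2 h at 37 °C; luminescence read.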

[11] = qHTS Assay for Lipid Storage Modulators (AID 1519; calls by dose curve); conditions: Drosophila S3 cells, BODIPY lipid droplet/cell ratio, laser cytometry, cells loaded with oleic acid
In short: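 Cells seeded at 5,000 per well were treated with compounds over a concentration series and loaded with oleic acid (400 uM, as added). Lipid droplet fluorescence (488 nm excitation, 500-530 nm channel) was read by laser-scanning cytometry and normalized to 20 uM Triacsin C.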

Structure (SMILES): COc1ccc(-c2c(C)c(C(=O)NN3CCCCC3)nn2-c2ccc(Cl)cc2Cl)cc1
- activity change, negative = inhibition [1]: inactive: 0.227%
- activity, negative = inhibition [2]: inactive: 3.7%
- activity change, negative = inhibition [3]: inactive: -4.61%

Structure (SMILES): NCCN1C(=O)c2ccccc2[C@@]1(O)c1ccc(Cl)cc1
- Potency [4]: inactive: > 11.4 µM
- activity change, negative = inhibition [5]: inactive: 6.13%
- activity change, negative = inhibition [6]: inactive: 4.09%
- activity change, negative = inhibition [7]: inactive: -1.9%
- activation (PDE inhibition) [8]: inactive: -2.64%

Structure (SMILES): Cc1c(C(=O)NN2CCCCC2)nn(-c2ccc(Cl)cc2Cl)c1-c1ccc(I)cc1
- Potency [9]: inactive: > 46 µM
- Potency [10]: inactive: > 46 µM
- activity change, negative = inhibition [7]: inactive: -5.1% [at 57.1 µM]
- activation (PDE inhibition) [8]: inactive: 1.4%

Structure (SMILES): COc1ccc2c(c1)c1c(C)c3cnccc3c(C)c1n2CCCN
- Potency [4]: inactive: > 11.4 µM
- activity change, negative = inhibition [7]: inactive: -5.27%
- activation (PDE inhibition) [8]: inactive: -0.785%

Structure (SMILES): Cc1cccc(CCN2CCC(C(=O)c3ccc(NS(C)(=O)=O)cc3)CC2)n1
- Potency [9]: inactive: > 46 µM
- Potency [10]: inactive: > 46 µM
- activity change, negative = inhibition ([11]; at 57.5 µM (top of the series)): inactive: -1.88%
- max response ([11]; measured here: cell count channel max response): 3.45%
- max response ([11]; measured here: lipid channel max response): 2.65%

Structure (SMILES): N#Cc1ccc(-c2ccc(NC(=O)Nc3ccc(-c4ccnc5nc[nH]c45)cc3)cc2)cc1
- activity change, negative = inhibition [1]: inactive: 2.81%
- outcome [2]: inactive
- activity change, negative = inhibition [3]: inactive: -4.07%

From PubChem BioAssay (NCATS)
